{
  "sequences": {"note": "The chains behind the UniProt entries cited, without tags or fusion partners.", "UniProt P46937": "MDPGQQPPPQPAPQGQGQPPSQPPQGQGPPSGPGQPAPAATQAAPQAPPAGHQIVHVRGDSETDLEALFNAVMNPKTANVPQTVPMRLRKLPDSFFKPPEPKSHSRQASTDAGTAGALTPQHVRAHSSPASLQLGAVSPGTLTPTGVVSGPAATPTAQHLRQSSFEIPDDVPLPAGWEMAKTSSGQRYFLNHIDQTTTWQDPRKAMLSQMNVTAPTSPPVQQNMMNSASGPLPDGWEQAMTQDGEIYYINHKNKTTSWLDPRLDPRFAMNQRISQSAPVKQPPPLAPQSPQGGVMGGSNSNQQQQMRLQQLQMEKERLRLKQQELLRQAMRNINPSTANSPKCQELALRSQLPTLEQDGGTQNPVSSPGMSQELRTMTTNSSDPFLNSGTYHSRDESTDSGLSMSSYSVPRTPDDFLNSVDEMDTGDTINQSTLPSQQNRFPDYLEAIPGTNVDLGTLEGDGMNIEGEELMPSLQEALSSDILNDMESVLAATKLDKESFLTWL", "UniProt Q9GZV5": "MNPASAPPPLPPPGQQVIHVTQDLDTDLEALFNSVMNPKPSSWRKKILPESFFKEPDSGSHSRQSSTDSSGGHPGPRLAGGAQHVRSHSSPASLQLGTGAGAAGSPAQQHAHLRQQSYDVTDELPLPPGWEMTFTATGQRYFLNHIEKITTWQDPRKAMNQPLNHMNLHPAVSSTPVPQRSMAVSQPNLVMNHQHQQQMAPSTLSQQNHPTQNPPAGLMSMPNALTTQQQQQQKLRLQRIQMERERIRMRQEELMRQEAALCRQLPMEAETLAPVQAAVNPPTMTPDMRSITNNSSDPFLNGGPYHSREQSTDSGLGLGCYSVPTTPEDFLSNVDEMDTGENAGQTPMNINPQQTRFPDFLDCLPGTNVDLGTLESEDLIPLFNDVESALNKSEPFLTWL", "UniProt Q9Y2J4": "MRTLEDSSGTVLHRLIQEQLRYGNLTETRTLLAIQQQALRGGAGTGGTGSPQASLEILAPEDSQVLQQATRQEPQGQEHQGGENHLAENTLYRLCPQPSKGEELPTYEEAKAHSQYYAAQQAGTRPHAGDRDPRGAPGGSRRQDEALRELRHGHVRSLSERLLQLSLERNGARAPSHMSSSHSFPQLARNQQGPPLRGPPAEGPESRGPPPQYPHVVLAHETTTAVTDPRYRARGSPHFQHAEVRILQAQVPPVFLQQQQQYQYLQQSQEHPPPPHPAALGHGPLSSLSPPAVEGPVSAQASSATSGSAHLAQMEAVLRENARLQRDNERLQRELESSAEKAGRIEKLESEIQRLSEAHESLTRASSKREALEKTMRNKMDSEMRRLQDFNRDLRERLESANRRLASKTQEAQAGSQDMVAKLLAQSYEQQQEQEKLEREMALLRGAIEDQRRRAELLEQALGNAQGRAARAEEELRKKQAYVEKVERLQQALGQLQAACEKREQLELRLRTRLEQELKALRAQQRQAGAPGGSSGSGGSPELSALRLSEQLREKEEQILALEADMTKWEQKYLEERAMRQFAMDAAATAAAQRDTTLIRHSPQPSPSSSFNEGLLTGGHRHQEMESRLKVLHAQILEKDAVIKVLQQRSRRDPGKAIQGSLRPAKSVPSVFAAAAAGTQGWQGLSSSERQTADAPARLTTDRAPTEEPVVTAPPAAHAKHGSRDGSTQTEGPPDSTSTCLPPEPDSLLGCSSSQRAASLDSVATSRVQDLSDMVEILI"},
  "source": "paper PMC10858845",
  "assay_in_all_cases": "co-IP; HUVEC, basal or treated with XAV939 (5 µM, 6 h); non-denaturing lysis buffer (20 mM Tris-HCl, 150 mM NaCl, 1 mM EDTA, 1 mM EGTA, 1% Triton X-100, pH 7.6); 500 µg protein with 1 µg primary antibody overnight at 4 °C, protein A/G magnetic beads 2 h; western blot",
  "key": {"[1]": {"target": "Yes-associated protein 1 (human (endogenous in HUVEC)) (UniProt P46937)"}, "[2]": {"target": "transcriptional coactivator with PDZ-binding motif (human (endogenous in HUVEC)) (UniProt Q9GZV5)"}, "[3]": {"target": "T1, vascular endothelial (VE)-cadherin (human (endogenous in HUVEC)) (UniProt P33151)", "T1 sequence": "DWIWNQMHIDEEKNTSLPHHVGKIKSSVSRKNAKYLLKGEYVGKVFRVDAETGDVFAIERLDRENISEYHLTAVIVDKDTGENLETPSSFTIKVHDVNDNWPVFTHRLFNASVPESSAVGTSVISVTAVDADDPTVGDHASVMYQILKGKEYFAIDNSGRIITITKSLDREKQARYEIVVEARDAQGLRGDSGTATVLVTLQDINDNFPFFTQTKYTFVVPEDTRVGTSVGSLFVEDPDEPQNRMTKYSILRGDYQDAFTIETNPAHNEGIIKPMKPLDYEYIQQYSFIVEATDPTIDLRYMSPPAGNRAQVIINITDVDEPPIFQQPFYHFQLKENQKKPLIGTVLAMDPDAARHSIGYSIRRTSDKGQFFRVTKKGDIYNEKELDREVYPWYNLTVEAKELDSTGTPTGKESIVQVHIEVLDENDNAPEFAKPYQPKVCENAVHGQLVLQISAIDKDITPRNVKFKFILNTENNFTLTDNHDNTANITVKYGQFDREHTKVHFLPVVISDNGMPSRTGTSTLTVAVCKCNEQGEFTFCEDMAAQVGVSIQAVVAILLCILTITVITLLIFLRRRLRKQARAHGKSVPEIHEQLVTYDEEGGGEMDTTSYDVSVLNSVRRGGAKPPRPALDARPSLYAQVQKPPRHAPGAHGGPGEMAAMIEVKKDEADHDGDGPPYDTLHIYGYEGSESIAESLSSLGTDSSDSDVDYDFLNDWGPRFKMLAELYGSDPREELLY"}, "[4]": {"target": "T2, vascular endothelial (VE)-cadherin (human (endogenous in HUVEC)), P33151", "T2 chain": "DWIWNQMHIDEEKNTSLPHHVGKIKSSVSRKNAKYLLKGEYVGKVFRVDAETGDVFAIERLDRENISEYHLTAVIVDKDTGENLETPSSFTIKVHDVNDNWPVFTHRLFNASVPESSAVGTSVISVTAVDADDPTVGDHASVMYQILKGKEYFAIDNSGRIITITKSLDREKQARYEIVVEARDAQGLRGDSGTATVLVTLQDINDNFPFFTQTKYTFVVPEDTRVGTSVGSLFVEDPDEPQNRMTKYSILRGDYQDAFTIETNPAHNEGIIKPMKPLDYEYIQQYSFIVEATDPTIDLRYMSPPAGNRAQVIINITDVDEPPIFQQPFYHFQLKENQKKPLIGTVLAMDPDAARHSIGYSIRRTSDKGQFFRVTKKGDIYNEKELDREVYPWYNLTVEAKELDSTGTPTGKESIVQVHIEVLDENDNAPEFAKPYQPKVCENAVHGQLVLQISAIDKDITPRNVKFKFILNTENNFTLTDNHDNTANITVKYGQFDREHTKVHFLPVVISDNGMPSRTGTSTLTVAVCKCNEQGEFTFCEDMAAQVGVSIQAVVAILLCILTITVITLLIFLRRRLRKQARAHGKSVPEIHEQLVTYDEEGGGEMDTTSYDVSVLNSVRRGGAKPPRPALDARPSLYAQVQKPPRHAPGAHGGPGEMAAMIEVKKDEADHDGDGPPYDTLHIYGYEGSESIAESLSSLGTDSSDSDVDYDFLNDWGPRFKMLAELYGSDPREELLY", "conditions": "remark: other sources report otherwise"}, "[5]": {"target": "Yes-associated protein 1 (human (endogenous in HUVEC)) (UniProt P46937)", "remark": "listed apart in the source"}, "[6]": {"target": "T1, vascular endothelial (VE)-cadherin (human (endogenous in HUVEC))", "remark": "listed apart in the source"}},
  "note": "Read-outs that look alike come from different tables or passages of the source. Results are given in words; binding and its absence hold for the method and conditions named. In cells and extracts the contact can be indirect. Some binding calls cover weakened binding; strength is not graded here.",
  "data": [
    {"molecule": "angiomotin-like 2 (from UniProt Q9Y2J4 1-779)", "values": [
      {"measurement": "binding", "setting": "[1]", "value": "binds"},
      {"measurement": "binding", "setting": "[2]", "value": "binds"},
      {"measurement": "binding", "setting": "[3]", "value": "binds"}
    ]},
    {"molecule": "β-catenin, P35222 1-781 (protein) MATQADLMELDMAMEPDRKAAVSHWQQQSYLDSGIHSGATTTAPSLSGKGNPEEEDVDTSQVLYEWEQGFSQSFTQEQVADIDGQYAMTRAQRVRAAMFPETLDEGMQIPSTQFDAAHPTNVQRLAEPSQMLKHAVVNLINYQDDAELATRAIPELTKLLNDEDQVVVNKAAVMVHQLSKKEASRHAIMRSPQMVSAIVRTMQNTNDVETARCTAGTLHNLSHHREGLLAIFKSGGIPALVKMLGSPVDSVLFYAITTLHNLLLHQEGAKMAVRLAGGLQKMVALLNKTNVKFLAITTDCLQILAYGNQESKLIILASGGPQALVNIMRTYTYEKLLWTTSRVLKVLSVCSSNKPAIVEAGGMQALGLHLTDPSQRLVQNCLWTLRNLSDAATKQEGMEGLLGTLVQLLGSDDINVVTCAAGILSNLTCNNYKNKMMVCQVGGIEALVRTVLRAGDREDITEPAICALRHLTSRHQEAEMAQNAVRLHYGLPVVVKLLHPPSHWPLIKATVGLIRNLALCPANHAPLREQGAIPRLVQLLVRAHQDTQRRTSMGGTQQQFVEGVRMEEIVEGCTGALHILARDVHNRIVIRGLNTIPLFVQLLYSPIENIQRVAAGVLCELAQDKEAAEAIEAEGATAPLTELLHSRNEGVATYAAAVLFRMSEDKPQDYKKRLSVELTSSLFRTEPMAWNETADLGLDIGAQGEPLGYRQDDPSYRSFHSGGYGQDALGMDPMMEHEMGGHHPGADYPVDGLPDLGHAQDLMDGLPPGDSNQLAWFDTDL", "values": [
      {"measurement": "binding", "setting": "[4]", "value": "binds"}
    ]},
    {"molecule": "angiomotin-like 1 (protein, UniProt Q8IY63 1-956) MWRAKLRRGTCEPAVKGSPSACYSPSSPVQVLEDSTYFSPDFQLYSGRHETSALTVEATSSIREKVVEDPLCNFHSPNFLRISEVEMRGSEDAAAGTVLQRLIQEQLRYGTPTENMNLLAIQHQATGSAGPAHPTNNFSSTENLTQEDPQMVYQSARQEPQGQEHQVDNTVMEKQVRSTQPQQNNEELPTYEEAKAQSQFFRGQQQQQQQQGAVGHGYYMAGGTSQKSRTEGRPTVNRANSGQAHKDEALKELKQGHVRSLSERIMQLSLERNGAKQHLPGSGNGKGFKVGGGPSPAQPAGKVLDPRGPPPEYPFKTKQMMSPVSKTQEHGLFYGDQHPGMLHEMVKPYPAPQPVRTDVAVLRYQPPPEYGVTSRPCQLPFPSTMQQHSPMSSQTSSASGPLHSVSLPLPLPMALGAPQPPPAASPSQQLGPDAFAIVERAQQMVEILTEENRVLHQELQGYYDNADKLHKFEKELQRISEAYESLVKSTTKRESLDKAMRNKLEGEIRRLHDFNRDLRDRLETANRQLSSREYEGHEDKAAEGHYASQNKEFLKEKEKLEMELAAVRTASEDHRRHIEILDQALSNAQARVIKLEEELREKQAYVEKVEKLQQALTQLQSACEKREQMERRLRTWLERELDALRTQQKHGNGQPANMPEYNAPALLELVREKEERILALEADMTKWEQKYLEESTIRHFAMNAAATAAAERDTTIINHSRNGSYGESSLEAHIWQEEEEVVQANRRCQDMEYTIKNLHAKIIEKDAMIKVLQQRSRKDAGKTDSSSLRPARSVPSIAAATGTHSRQTSLTSSQLAEEKKEEKTWKGSIGLLLGKEHHEHASAPLLPPPPTSALSSIASTTAASSAHAKTGSKDSSTQTDKSAELFWPSMASLPSRGRLSTTPAHSPVLKHPAAKGTAEKLENSPGHGKSPDHRGRVSSLLHKPEFPDGEMMEVLI", "values": [
      {"measurement": "binding", "setting": "[5]", "value": "binds"},
      {"measurement": "binding", "setting": "[6]", "value": "binds"}
    ]}
  ]
}
